Measured values as given in publication PMC7082817.
No constants are given. Whether binding was seen depends on the method and setting. In cells and extracts the contact can be indirect. Binding calls can cover weak binding; strength is not graded here.

Protein sequences, listed by entry. Tags and fused reporters are not part of them.
UniProt P06493: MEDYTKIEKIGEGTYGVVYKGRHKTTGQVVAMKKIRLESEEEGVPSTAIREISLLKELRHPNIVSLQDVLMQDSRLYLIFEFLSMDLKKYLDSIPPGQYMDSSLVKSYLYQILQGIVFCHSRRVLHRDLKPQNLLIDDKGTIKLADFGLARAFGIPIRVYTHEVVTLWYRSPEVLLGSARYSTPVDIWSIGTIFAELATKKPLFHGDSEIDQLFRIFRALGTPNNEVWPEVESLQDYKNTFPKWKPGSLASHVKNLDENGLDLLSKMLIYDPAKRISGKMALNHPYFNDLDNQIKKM

Molecular target: Flag-tagged CDK1 (UniProt P06493)
Assay: co-IP; HeLa cells cotransfected 16 h with Flag-tagged CDK1 and EGFP-fused RRSPPa variants; lysate on anti-FLAG magnetic beads; Western blot with antibodies against Flag and EGFP

EGFP-RRSPPa (RRSP homologous protein of Photorhabdus asymbiotica fused to EGFP) (from UniProt A0ABX9SR30)
binding: binds
